Measured values reported in publication PMC6680840 (Molecules, 2019).

By UniProt entry, the sequences of proteins in these tests, tags left out. Residues count along the entry.
UniProt P05067, 672-713: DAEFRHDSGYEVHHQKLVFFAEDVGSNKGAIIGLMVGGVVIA

Target: T1, Aβ1-42 aggregation (Homo sapiens, UniProt P05067)
T1 construct: pre-treated Aβ1–42 (GL Biochem Ltd); purchased GL Biochem Ltd, shanghai, China
Assay: Inhibition of Aβ1-42 aggregation, thioflavin T (ThT) method
Assay type: biochemical

Structure (SMILES): COc1cc2c(cc1OC)C(=O)C(CC1CCN(Cc3ccccc3)CC1)C2 (stereo not shown) [donepezil, reference compound]
- inhibition ratio towards Aβ1-42 aggregation: 25.8 ± 6.2%
